The values below come from PubChem BioAssay AID1458 (National Center for Advancing Translational Sciences (NCATS), 2008).

Molecules are shown by their SMILES. The whole screen tested about 210,000 compounds, of which about 5,900 (2.8%) were called active. Not shown: some 5% with an inconclusive outcome. The call rests on the fitted dose curve; in most records, active means well fitted activation curve with a large enough effect; inconclusive means small, poorly fitted or top-dose-only effect; inactive means no such curve, though single readings can be large or run the other way. This is a selection; strong and weak results do not stand in their true shares. Where no call is shown, the source filed none.
Potency means the concentration at half of the fitted maximal effect.

This assay in a line: qHTS Assay for Enhancers of SMN2 Splice Variant Expression. Further: nearly all actives have a fitted effect of over 55% in size. On activity change, positive = activation: % of control where 0% means no effect. The note with it: HEK293 SMN2-luciferase splicing reporter, luminescence, 30-36 h; activity change, positive = activation: at 46.1 µM (top of the series) unless noted. The procedure, abridged: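 HEK293 cells carry an SMN2 […]–luciferase reporter in which exon 7 inclusion puts luciferase in frame. Cells were plated 10-12 h before compound addition, then incubated 30-36 h at 37C. ONE-Glo luminescence was read; sodium butyrate at 4.5 mM final served as control.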
Regarding `N#CCCN(Cc1cccnc1)C(=O)c1sc2cc(F)ccc2c1Cl`, the activity change, positive = activation is -55.7%.
As for `CCSc1nnc(NC(=O)CSc2nnc(Cc3cccn3C)n2CCc2ccccc2)s1`, the activity change, positive = activation amounted to 33.1%.
The same measure, in the same setting: the figure for `COc1ccccc1-n1c(CNC(=O)c2ccco2)nnc1SCC(=O)Nc1cc(C)ccc1C` is inactive: -37.1%.
Turning to `CC(C)(C)c1ccc(OCC(=O)N2CCCCCC2)c(Br)c1`, the Potency is active: 12.6 µM.
On to `CC1=Nn2c(nnc2-c2ccccc2F)SC1`, for which the activity change, positive = activation amounted to 30.7%.
On the same count and under the same terms, next, `Cc1ccc(N=Nc2c(=O)[nH]n3c(=O)cc(C)[nH]c23)cc1`: inactive: -36.9%.
In the case of `COCc1cc(C)nc(N2CCCCC2)c1C#N`, the activity change, positive = activation was found to be 23.8%.
Turning to `Cc1nn(CCC(=O)NNC(=S)Nc2ccc(F)cc2)c(C)c1Br`, the activity change, positive = activation came to 6.31%.
On the same count and under the same terms, the figure for `C/C(NCC(C)(C)CN(C)C)=C(/C#N)C(=O)NCc1ccccc1` is 37.4%; for `Cn1c(=NC(=O)CCl)sc2ccccc21` it is inactive: -79.7%.
In the case of `CN(C(=O)c1cccnc1)c1nnc(-c2ccccn2)s1`, the activity change, positive = activation is 42.2%.
On to `Cc1ccc(C)c(Cn2nnc3c(=O)[nH]c(C4CCCN(C(=O)CC(C)C)C4)nc32)c1` (configuration not stated), for which the activity change, positive = activation stood at 34.8%.
On the same count and under the same terms, the figure for `Cc1onc(C(N)=O)c1C(=O)Nc1ncc(C(F)(F)F)cc1Cl` is 43.5%; for `CCOP(=O)(OCC)C(NC(=O)c1cc([N+](=O)[O-])cc([N+](=O)[O-])c1)C(F)(F)F` (configuration not stated) it is 40.2%; for `COc1ccc(C(=O)/C(C#N)=N/Nc2cccc([N+](=O)[O-])c2)cc1` it is inactive: -62.9%.
Take `N#Cc1c(-c2ccccc2Cl)noc1/C=C/Nc1ccc(C(=O)O)cc1`: the activity change, positive = activation is 72.3%.
For `CCOC(=O)Nc1cc(Br)c2c(c1)OCCO2`, the activity change, positive = activation worked out at 35.4%.
Regarding `CCOC(=O)C1=C(C)NC2=C(C(=O)C(C(=O)OCC)C(c3ccco3)C2)C1c1ccccn1` (configuration not stated), the activity change, positive = activation worked out at 51.1%.
For the molecule `CC(C)c1ccc(CN2CCN(C(=O)CCl)CC2)cc1`, the “activity change, positive = activation” value is inactive: -35.2%.
On to `COC(=O)C1=C(C)N=C2SC(C#N)=C(N)N2C1c1cccc(OC)c1` (configuration not stated), for which the activity change, positive = activation worked out at 44.8%.
Turning to `Cc1c(C(=O)Nc2ccc3c(c2)OCCO3)sc2nc(-c3ccccc3)cn12`, the “activity change, positive = activation” value was inactive: -117%.
In the case of `O=C(N/N=C/c1cn(-c2ccccc2)nc1-c1cc2ccccc2o1)c1ccccc1Br`, the Potency is active: 4.47 µM.
Consider `Cc1cc(NCCCn2ccnc2)n2ncc(-c3ccccc3)c2n1`, for which the “activity change, positive = activation” value is inactive: -38.4%.
The same measure, in the same setting: next, `CCN1CCN(Cc2c(O)ccc3oc(C)c(C(=O)Nc4cccc(C(F)(F)F)c4)c23)CC1`: -54%; `COCCC(=O)NC12CC3CC(CC(C3)C1)C2`: 34.5%.
Take `CCOc1ccc(-c2nnc(-c3cccs3)o2)cc1`: the Potency was active: 2 µM.
In the case of `Cc1cccc(OCC(=O)NCc2cc(C)nc3ccccc23)c1`, the “activity change, positive = activation” value is inactive: -47%.
Same read-out and setting: the figure for `COc1ccc(-c2noc(CCC(=O)Nc3cccc(C)c3)n2)cc1` is 35.7%; for `CC(NC(=S)NCCc1ccccc1)C(c1cccs1)N1CCN(Cc2ccccc2)CC1` (configuration not stated) it is inactive: -67.1%.
As to `CC(/C=C1\SC(=S)N(NC(=O)c2ccccc2C)C1=O)=C\c1ccccc1`, the activity change, positive = activation was -33.6%.
On the same count and under the same terms, the figure for `CCC(=O)OCC(=O)Nc1ccc2c(c1)OCO2` is 30.1%.
Regarding `O=C(OCn1ncc(Br)c(Br)c1=O)c1c(F)cccc1F`, the activity change, positive = activation is -71.7%.
On to `O=C(CCSCc1ccc(Cl)cc1)NCc1cccs1`, for which the “activity change, positive = activation” value is inactive: -61.2%.
Consider `O=C(O)/C=C/c1ccc(OCc2cccc(F)c2)cc1`, for which the activity change, positive = activation amounted to 39.7%.
The same measure, in the same setting: next, `Cc1c(CNC(=O)c2cnn3c2NC(c2ccc(Br)cc2)CC3C(F)(F)F)cnn1C` (configuration not stated): 38.9%.
Same read-out and setting: the figure for `CNC(=O)C(C)NS(=O)(=O)c1ccc(F)cc1` (configuration not stated) is 27.7%.
As for `C/C(=N/NC(=O)Cc1cc(=O)[nH][nH]1)c1ccc([N+](=O)[O-])cc1`, the activity change, positive = activation is 53.5%.
With `CCOC(=O)c1ccc(S(=O)(=O)NNC(=O)COc2cccc(C)c2)cc1`, the activity change, positive = activation worked out at 14.3%.
Regarding `Nc1nnc(COc2ccccc2)s1`, the activity change, positive = activation was determined as 36.7%.
In the case of `O=C1CC(N2CCC(c3nc4ccccc4o3)CC2)C(=O)N1Cc1cccs1` (configuration not stated), the activity change, positive = activation came out at 21.2%.
For `O=C(Oc1ccccc1)c1ccc2nccnc2c1`, the activity change, positive = activation was 30.5%.
Same read-out and setting: next, `COc1cccc(C(=O)Oc2c(Sc3ccc(C)cc3)c(C)nn2C(C)(C)C)c1OC`: inactive: -82.1%.
On to `CCN(CC)CCCNC(=O)CCC(=O)NNc1nc2ccccc2c2nc(C)nn12`, for which the Potency result was “inactive”.
For the molecule `COc1ccc(-c2csc(NC(=O)c3cccc(S(=O)(=O)N4CCN(C)CC4)c3)n2)cc1`, the activity change, positive = activation was -40.5%.
Take `O=C(c1cc(C(F)(F)F)cc(C(F)(F)F)c1)N1CCC2(CCN(Cc3ccncc3)CC2)CC1`: the “activity change, positive = activation” value was inactive: -42.7%.
Consider `Clc1ccc(OCc2cn3cccnc3n2)c2ncccc12`, for which the Potency is active: 11.2 µM.
In the case of `CN(c1cccc(NC(=O)c2ccccc2N(C)S(C)(=O)=O)c1)S(C)(=O)=O`, the activity change, positive = activation was found to be 34.1%.
As for `C/C=C/c1ccccc1OCc1ccc(C(=O)O)o1`, the activity change, positive = activation was found to be 33.7%.
For the molecule `COc1ccc(CNC(=O)c2c(C)cc(=O)oc2C)cc1OC`, the activity change, positive = activation was determined as 30.9%.
Same read-out and setting: the figure for `Cc1sc2nc(CSc3ccc([N+](=O)[O-])c(C(F)(F)F)c3)[nH]c(=O)c2c1C` is 2.13%; for `CCOc1ccc2nc(-c3cc(NC(C)=O)ccc3O)sc2c1` it is 55%.
On to `CCOC(=O)c1csc(NC(=O)CSc2nnnn2-c2ccc3c(c2)OCCO3)n1`, for which the activity change, positive = activation is -81.1%.
